From article PMC4148199, “Multiple Regulation of Rad51-Mediated Homologous Recombination by Fission Yeast Fbh1” (PLoS Genetics, 2014)
These are yes or no findings as the source states them, for the method shown. Some results given as binding are weak or reduced against the parent protein; the word gives no strength. Tags and fused reporters may be left off the sequences shown. One block for each molecule: values may come before it.

Chains of the proteins cited; added tags and fusions are not shown.
UniProt O13959: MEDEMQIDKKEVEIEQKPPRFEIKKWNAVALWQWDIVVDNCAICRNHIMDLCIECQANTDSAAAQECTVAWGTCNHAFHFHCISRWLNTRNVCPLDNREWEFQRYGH

Legend:
[1] = target: T1, S. pombe 6His-Pcu1 (S. pombe) (UniProt O13790); assay: co-purification (co-elution on ion-exchange and heparin columns); insect cells co-infected with 6His-Pcu1 and 6His-Rbx1 baculoviruses; TALON resin, then co-elution from HiTrap Q (~500 mM NaCl) and HiTrap Heparin (~600 mM NaCl)
T1 sequence: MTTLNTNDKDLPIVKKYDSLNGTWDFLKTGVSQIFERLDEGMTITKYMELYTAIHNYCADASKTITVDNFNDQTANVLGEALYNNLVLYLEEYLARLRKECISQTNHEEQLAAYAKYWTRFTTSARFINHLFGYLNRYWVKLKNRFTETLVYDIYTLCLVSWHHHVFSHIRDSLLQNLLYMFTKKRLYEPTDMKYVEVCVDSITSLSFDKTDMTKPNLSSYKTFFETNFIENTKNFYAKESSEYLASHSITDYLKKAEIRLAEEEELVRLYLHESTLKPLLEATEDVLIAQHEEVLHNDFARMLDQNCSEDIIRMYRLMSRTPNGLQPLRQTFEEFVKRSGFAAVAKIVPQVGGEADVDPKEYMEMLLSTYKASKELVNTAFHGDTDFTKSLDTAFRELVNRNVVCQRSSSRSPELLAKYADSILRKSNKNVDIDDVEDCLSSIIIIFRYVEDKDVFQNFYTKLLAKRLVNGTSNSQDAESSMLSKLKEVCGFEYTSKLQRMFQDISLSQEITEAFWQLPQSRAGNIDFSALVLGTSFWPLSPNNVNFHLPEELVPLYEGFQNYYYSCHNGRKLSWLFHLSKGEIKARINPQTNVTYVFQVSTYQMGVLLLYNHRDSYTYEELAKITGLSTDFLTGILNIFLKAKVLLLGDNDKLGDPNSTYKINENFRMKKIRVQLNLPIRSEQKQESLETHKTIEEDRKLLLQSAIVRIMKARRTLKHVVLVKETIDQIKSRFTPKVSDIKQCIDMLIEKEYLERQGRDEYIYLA

[2] = target: T2, 3FLAG6His-Fbh1 (S. pombe) (UniProt Q9USU3); assay: co-purification (co-elution on ion-exchange, heparin and gel-filtration columns); insect cells co-infected with the two baculoviruses; TALON resin, then co-elution from HiTrap Q (~500 mM NaCl), HiTrap Heparin (~600 mM NaCl), Superdex 200 in R buffer with 1 M NaCl, ResourceQ (~600 mM NaCl)
T2 sequence: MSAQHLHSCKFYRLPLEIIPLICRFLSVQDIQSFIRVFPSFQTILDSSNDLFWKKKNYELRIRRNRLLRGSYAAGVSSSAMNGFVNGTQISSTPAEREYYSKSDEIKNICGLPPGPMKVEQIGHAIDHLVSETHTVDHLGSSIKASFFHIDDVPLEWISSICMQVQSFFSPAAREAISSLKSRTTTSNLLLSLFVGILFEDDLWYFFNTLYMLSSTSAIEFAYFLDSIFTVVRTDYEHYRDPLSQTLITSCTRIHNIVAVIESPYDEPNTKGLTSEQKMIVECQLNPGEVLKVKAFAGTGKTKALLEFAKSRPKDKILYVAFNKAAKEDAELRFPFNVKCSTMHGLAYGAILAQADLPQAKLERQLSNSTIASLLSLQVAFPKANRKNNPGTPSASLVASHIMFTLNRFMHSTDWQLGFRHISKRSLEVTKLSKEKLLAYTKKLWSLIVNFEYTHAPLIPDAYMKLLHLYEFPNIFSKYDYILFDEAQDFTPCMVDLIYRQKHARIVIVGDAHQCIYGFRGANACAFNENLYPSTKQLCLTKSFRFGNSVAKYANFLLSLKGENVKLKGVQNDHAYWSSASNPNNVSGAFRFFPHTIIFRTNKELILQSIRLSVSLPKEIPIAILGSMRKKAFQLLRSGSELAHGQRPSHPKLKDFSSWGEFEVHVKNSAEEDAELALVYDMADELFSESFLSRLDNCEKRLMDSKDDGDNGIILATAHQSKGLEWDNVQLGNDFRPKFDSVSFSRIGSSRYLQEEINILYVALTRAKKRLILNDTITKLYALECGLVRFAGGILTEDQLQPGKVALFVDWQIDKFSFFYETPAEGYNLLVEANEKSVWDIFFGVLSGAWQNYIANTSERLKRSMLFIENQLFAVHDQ

[3] = target: T3, Fbh1^K301A (S. pombe) (UniProt Q9USU3); assay: as above
T3 sequence: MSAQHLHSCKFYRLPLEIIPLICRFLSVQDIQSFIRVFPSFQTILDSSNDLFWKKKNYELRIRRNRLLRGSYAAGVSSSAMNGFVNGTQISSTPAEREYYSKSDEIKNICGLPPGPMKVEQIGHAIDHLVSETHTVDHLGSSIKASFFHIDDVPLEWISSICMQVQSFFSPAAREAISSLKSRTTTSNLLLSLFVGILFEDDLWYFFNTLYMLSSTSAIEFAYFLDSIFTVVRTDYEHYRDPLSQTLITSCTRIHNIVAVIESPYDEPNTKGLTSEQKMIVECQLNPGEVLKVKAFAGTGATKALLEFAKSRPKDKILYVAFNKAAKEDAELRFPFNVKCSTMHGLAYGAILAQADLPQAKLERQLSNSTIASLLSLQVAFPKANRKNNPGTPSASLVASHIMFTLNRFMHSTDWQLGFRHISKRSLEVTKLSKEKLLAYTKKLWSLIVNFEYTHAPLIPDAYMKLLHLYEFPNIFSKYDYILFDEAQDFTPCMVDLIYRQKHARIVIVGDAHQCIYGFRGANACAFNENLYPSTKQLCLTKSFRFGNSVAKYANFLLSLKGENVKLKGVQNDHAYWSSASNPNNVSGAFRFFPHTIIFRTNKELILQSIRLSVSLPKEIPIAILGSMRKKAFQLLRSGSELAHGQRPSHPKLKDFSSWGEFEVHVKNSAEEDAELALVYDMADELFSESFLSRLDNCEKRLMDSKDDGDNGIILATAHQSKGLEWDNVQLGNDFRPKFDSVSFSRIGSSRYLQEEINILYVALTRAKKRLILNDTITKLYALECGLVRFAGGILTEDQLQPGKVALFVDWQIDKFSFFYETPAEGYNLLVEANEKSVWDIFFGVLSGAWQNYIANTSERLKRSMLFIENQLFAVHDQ

[4] = target: T4, S. pombe 6His-Fbh1 (S. pombe) (UniProt Q9USU3); assay: as above
T4 sequence: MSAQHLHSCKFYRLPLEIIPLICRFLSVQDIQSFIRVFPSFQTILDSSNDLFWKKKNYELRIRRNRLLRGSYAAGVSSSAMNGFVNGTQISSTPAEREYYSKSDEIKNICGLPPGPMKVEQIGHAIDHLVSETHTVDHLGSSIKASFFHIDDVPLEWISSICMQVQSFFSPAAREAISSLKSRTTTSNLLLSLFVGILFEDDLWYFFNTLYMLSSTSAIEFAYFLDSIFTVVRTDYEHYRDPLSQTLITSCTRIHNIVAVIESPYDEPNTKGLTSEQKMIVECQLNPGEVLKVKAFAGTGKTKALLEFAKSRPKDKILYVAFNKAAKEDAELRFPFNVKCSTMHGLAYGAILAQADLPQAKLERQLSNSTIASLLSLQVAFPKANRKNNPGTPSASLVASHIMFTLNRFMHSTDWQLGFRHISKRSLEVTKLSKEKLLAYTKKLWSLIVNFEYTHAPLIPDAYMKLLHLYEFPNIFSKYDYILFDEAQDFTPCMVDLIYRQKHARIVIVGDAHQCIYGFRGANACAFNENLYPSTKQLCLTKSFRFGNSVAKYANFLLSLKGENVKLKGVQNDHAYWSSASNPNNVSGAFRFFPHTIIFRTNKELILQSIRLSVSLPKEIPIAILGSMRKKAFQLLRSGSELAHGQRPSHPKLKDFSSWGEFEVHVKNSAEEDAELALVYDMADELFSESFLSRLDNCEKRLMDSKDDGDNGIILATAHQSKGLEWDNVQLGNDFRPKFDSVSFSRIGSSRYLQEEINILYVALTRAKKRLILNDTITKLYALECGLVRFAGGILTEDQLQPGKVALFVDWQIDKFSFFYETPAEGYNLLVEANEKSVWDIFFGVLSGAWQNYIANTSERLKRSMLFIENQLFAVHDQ

[5] = target: T5, complex of 3FLAG6His-Fbh1 and 6His-Skp1 (S. pombe, UniProt Q9USU3 1-878; Q9Y709 1-161); assay: co-IP; in vitro; 0.5 µg of each purified protein mixed in 10 µl 25 mM Tris-OAc pH 7.5, 100 mM KCl, 0.5% NP40, 3 mM Mg-acetate, 10 min room temperature then 20 min 4°C; M2 anti-FLAG antibody and Dynabeads Protein G; western blot with anti-Rad51, anti-Sfr1 or anti-M2; both purified
T5 construct: Fbh1 (F-box DNA helicase-1), Schizosaccharomyces pombe; Skp1, Schizosaccharomyces pombe; also called FLAG-His-tagged Fbh1-Skp1; Fbh1-Skp1 complex; source: insect cells, baculovirus co-infection, purified as a complex
T5 sequence (looked up) 1: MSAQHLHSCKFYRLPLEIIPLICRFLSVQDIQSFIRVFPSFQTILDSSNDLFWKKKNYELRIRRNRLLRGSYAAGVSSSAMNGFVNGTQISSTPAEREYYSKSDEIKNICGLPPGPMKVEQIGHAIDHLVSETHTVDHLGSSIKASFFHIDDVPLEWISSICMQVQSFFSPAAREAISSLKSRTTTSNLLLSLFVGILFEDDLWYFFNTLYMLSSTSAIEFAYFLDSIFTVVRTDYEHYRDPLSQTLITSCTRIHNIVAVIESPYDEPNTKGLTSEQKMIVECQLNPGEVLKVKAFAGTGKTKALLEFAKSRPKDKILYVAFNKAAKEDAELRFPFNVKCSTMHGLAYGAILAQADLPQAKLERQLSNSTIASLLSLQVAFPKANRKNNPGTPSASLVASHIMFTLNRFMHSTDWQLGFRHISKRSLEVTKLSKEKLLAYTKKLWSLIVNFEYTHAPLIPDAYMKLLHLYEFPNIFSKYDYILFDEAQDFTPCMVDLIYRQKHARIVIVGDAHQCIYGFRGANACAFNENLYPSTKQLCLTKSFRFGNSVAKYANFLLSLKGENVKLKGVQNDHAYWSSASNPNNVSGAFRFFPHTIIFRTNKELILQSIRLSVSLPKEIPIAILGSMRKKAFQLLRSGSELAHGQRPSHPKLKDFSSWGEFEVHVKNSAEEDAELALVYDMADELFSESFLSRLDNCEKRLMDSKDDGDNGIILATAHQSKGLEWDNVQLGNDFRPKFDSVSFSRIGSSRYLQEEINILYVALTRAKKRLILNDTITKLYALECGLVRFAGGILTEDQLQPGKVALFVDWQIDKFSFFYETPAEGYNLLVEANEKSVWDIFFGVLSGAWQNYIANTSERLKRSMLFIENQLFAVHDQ
T5 sequence (looked up) 2: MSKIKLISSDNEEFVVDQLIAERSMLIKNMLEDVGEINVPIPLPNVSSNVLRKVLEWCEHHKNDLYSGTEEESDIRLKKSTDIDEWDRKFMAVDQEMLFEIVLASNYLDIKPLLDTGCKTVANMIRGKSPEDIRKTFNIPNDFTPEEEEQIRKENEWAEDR

binding [1]: binds
Molecule: S. pombe 6His-Rbx1 (from UniProt O13959 1-107)

binding [2]: binds
binding [3]: binds
binding [4]: binds
B1: S. pombe 6His-Skp1 (protein, UniProt Q9Y709 1-161)
chain: MSKIKLISSDNEEFVVDQLIAERSMLIKNMLEDVGEINVPIPLPNVSSNVLRKVLEWCEHHKNDLYSGTEEESDIRLKKSTDIDEWDRKFMAVDQEMLFEIVLASNYLDIKPLLDTGCKTVANMIRGKSPEDIRKTFNIPNDFTPEEEEQIRKENEWAEDR

B2: Swi5-Sfr1 complex (complex, UniProt Q9UUB7 1-85; Q9USV1 1-299)
chain 1: MEKSQLESRVHLLEQQKEQLESSLQDALAKLKNRDAKQTVQKHIDLLHTYNEIRDIALGMIGKVAEHEKCTSVELFDRFGVNGSE
chain 2: MSQTINSELNENATSQCKEDLKVSLSESDLRDSQGQLGIENPPKCNNSGNHSDNLGFIEQSETVHPENEKALTPDLRDTKIHTSLPITTPFSKKRAREAKNILLKPFKSPLRQTASPQVADTNLKPSLAVTNLNSDETNTSSEPVTSPLRTTPNSIKRQKRLFKSPISNCLNPKSDPEITQLLSRRLKLEKEVRNLQEQLITAETARKVEAKNEDKDLQTLIQKWKNAAQQAAEVLFKPMAERIRLAGGVTQSFRIEEGENKGQIQEVRTEFTMSMFLNQFGVPVHLMSFDEENGDWKS
binding [5]: no binding (tested: 0.5 µg of each protein in 10 µl)
